The values below come from patent US4550078A, “Method for the quantitative determination of individual polyamine components in a mixture” (Amano Seiyaku Kabushiki Kaisha, priority 1982, dated 1985).

A short description of data set [1]: Example 1: determination of 7 polyamines in a known aqueous mixture, steps A1 to G1. The note with it: calculated concentration 20.0 μM each.
Data set [2] can be described thus: Example 4: determination of 6 polyamines in a known mixture with control plasma solution, steps A3 to F3. The note with it: expected 40 μM each.
Data set [3] in a line: Example 5: determination of 5 polyamines in a known mixture, steps A4 to E4. The note with it: expected 10.0 μM each.
The nature of data set [4]: Example 7: determination of 4 polyamines in a known mixture of 7, steps A6 to D6. The note with it: expected 20.0 μM each.
Data set [5] can be described thus: Example 6: determination of 4 polyamines in a known mixture of 7, steps A5 to D5. The note with it: expected 20.0 μM each.
Data set [6] in a line: Example 11: alternative analysis of human urine with acid deacetylation, steps A10 to F10.

On to `CC(=O)NCCCCNCCCN` [N^8 -acetylspermidine], for which the “molar concentration found in the photometric solution” value (“molar concentration found” below) was 19.2 µM in data set [1], 38.7 µM in data set [2], 9.6 µM in data set [3] and 19.2 µM in data set [4].
In the case of `NCCCCN` [putrescine], the “molar concentration found” value in data set [1] is 20.0 µM; in data set [2] it was 39.5 µM; in data set [3], 10.1 µM; in data set [5] it was 19.7 µM; in data set [4], 20.0 µM. Also, the “Concentration in the urine” value in data set [6] was found to be 4.1 µM.
With `NCCCCNCCCN` [spermidine], the “molar concentration found” value in data set [1] was 20.0 µM; in data set [2], 39.4 µM; in data set [3], 10.1 µM; in data set [5], 20.3 µM; in data set [4] it was 20.0 µM. The “Concentration in the urine” value in data set [6] was found to be 3.2 µM.
Turning to `NCCCNCCCCNCCCN` [spermine], the “molar concentration found” value was 20.0 µM in data set [1]; 40.0 µM in data set [2]; 10.0 µM in data set [3]; 19.8 µM in data set [5]; 20.0 µM in data set [4]. Besides, the “Concentration in the urine” value in data set [6] came out at 2.4 µM.
